# PubChem BioAssay AID2551 (National Center for Advancing Translational Sciences (NCATS), 2010)
# Chains of the proteins cited; added tags and fusions are not shown. Lines headed by an entry give the natural chain unless they say otherwise; changes in a name come on top.
# UniProt P51450: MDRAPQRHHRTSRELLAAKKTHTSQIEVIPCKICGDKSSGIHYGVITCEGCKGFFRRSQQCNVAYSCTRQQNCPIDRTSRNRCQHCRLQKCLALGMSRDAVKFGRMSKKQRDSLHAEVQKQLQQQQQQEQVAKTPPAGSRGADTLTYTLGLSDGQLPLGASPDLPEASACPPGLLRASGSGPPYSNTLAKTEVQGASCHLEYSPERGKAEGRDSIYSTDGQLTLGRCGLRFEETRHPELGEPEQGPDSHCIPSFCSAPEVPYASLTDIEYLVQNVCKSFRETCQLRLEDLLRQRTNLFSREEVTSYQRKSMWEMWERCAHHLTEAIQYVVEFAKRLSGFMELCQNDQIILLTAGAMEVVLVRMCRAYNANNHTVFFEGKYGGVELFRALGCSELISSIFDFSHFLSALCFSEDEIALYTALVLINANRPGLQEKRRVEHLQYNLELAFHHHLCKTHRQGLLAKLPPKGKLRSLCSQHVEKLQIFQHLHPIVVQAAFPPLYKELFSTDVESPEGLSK
# Where “and” joins values, the source holds several entries; their conditions need not be identical. Equal values may be shown once. In all, about 310,000 compounds went through this assay and about 17,000 (5.5%) were called active. The inconclusive results got no clear call from the source; some entries with a clear call stand among them for comparison. The call rests on the fitted dose curve; in most records, active means well fitted inhibition curve with a large enough effect; inconclusive means small, poorly fitted or top-dose-only effect, or effect the other way; inactive means no such curve, though single readings can be large or run the other way. A potency beside an inconclusive call is a rough fit, not a confirmed value.
# Target: Nuclear receptor ROR-gamma (Mus musculus) (UniProt P51450)
# Assay: qHTS for inhibitors of ROR gamma transcriptional activity; further: nearly all actives have a fitted effect of over 60% in size
# Details: Drosophila S2 Gal4-RORgamma UAS-luciferase reporter, 20 h; activity change, negative = inhibition: at 53.6 µM (top of the series)
# In short: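 Read-out: Photinus luciferase luminescence; inhibitors lower reporter signal. Insect Schneider cells with Gal4-ROR gamma fusion under metallothionein promoter, UAS reporter; 700 uM final copper sulfate induction, 20 hr, ambient temperature.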
# On the % scale 0 is the no-effect control and ±100 the full control effect; potency means the concentration at half of the fitted maximal effect.
SMILES,Potency,"activity change, negative = inhibition"
Cc1nc(-c2ccc(F)cc2)c(CC(=O)Nc2ccc(C)c(S(=O)(=O)N3CCOCC3)c2)s1,"inconclusive: 31.6 µM [activator, single point]",
COc1ccccc1NC(=O)CSc1nc2nc(C)cc(C)c2c(=O)[nH]1,,inactive: -20.3%
S=C(NC1CCCCC1)N1CCOCCOCCN(C(=S)NC2CCCCC2)CCOCCOCC1,,inactive: -11.2%
COc1ccccc1C(=O)NCC(=O)NC(C)c1ccc(-n2ccnc2)cc1 (stereo not drawn),,inactive: -3.12%
c1ccc(-c2csc3ncnc(N4CCOCC4)c23)cc1,,inactive: -0.302%
COc1cccc(Nc2nc(N)nc(-c3oc4ccccc4c3C)n2)c1,,inactive: -0.33%
CCCOc1ccc(-c2nc(C#N)c(N3CCC(C(N)=O)CC3)o2)cc1,,inactive: 40.1%
Oc1ccc(O)c(-c2cnns2)c1,active: 3.16 µM,
CCOc1ccc(Br)cc1C(=O)N/N=C/c1cccc(C)n1,,inactive: -22.7%
O=C(Cc1cccc2ccccc12)Nc1ccc2c(c1)C(=O)NC2=O,,inactive: -0.654%
Cc1ccc(-c2nnn(CC(=O)NC3CCN(Cc4ccccc4)CC3)n2)cc1,"inconclusive: 6.31 µM [inhibitor, single point]",
CCCC(=O)O[C@]1(C(=O)COC(C)=O)CC[C@H]2C3C[C@H](F)C4=CC(=O)C=CC4(C)[C@@]3(F)[C@@H](O)CC21C (stereo partly drawn),,inactive: -25.1%
O=C(Nc1ccc([N+](=O)[O-])cc1Cl)c1cc(Cl)ccc1O,active: 562 nM and active: 6.31 µM and active: 1.26 µM,
N#Cc1c(N)n[nH]c1-c1cc2c([nH]1)CCCC2,"inconclusive: 14.1 µM [activator, partial curve, poor fit]",
O=C(COc1nnnc2ccccc12)N1CCCc2ccccc21,"inconclusive: 35.5 µM [activator, single point]",
CCCCC1=CC2=C(c3ccco3)C(=O)C(C)(OC(=O)c3ccc(OC)cc3)C(=O)C2=CN1CCCOC(C)C (stereo not drawn),,inactive: -2.99%
CCc1ccc2c(c1)[C@H]1OCC[C@H]1[C@@H](c1cccs1)N2,"inconclusive: 12.6 µM [activator, partial curve]",
CCOc1ccccc1C(=O)N1CCN(c2ccc(C(F)(F)F)cn2)CC1,"inconclusive: 14.1 µM [activator, single point]",
Cn1c(CCNC(=O)c2ccccc2)nc2cc(NC(=O)c3ccco3)ccc21,"inconclusive: 15.8 µM [activator, single point]",
COc1ccc(C(=O)Nc2nc3ccccc3c(=O)[nH]2)cc1,"inconclusive: 0.0056 µM [activator, full curve, poor fit]",
COc1ccccc1CNC(=O)CN(C)Cc1ccc(SC)cc1,,inactive: 1.45%
Cc1[nH]c(C)c(S(=O)(=O)Nc2ccccc2)c1C(=O)N1CCCC1,,inactive: 0.0908%
Oc1c(C(c2ccccn2)N2CCCCC2)cc(Cl)c2cccnc12 (stereo not drawn),active: 2.82 µM,
O=S(=O)(Nc1nc2ccccc2s1)c1ccc(Cl)nc1,"inconclusive: 14.1 µM [activator, partial curve]",

# Entries of single compounds, looked up by structure.
# S=C(NC1CCCCC1)N1CCOCCOCCN(C(=S)NC2CCCCC2)CCOCCOCC1 is listed as activity change, negative = inhibition: inactive: -11.2%
# CCCC(=O)O[C@]1(C(=O)COC(C)=O)CC[C@H]2C3C[C@H](F)C4=CC(=O)C=CC4(C)[C@@]3(F)[C@@H](O)CC21C (stereo partly drawn) is listed as activity change, negative = inhibition: inactive: -25.1%
# O=C(Nc1ccc([N+](=O)[O-])cc1Cl)c1cc(Cl)ccc1O is listed as Potency: active: 562 nM and active: 6.31 µM and active: 1.26 µM
# Cc1ccc(-c2nnn(CC(=O)NC3CCN(Cc4ccccc4)CC3)n2)cc1 is listed as Potency: inconclusive: 6.31 µM [inhibitor, single point]

# (list continues)

SMILES,Potency,"activity change, negative = inhibition"
O=C(NCC(=O)N(c1ccc2c(c1)OCO2)C(C(=O)NC1CCCC1)c1ccncc1)c1ccco1 (stereo not drawn),,inactive: 5.63%
COc1ccc2c(c1)C(C)CC(C)(C)N2C(=O)CSc1ncn[nH]1 (stereo not drawn),"inconclusive: 0.631 µM [inhibitor, full curve]",
COc1ccc(/C=C/C(=O)c2c(O)cc(C)oc2=O)c(OC)c1,"inconclusive: 35.5 µM [inhibitor, single point]",
CCN(CC)c1ccc(NC(=O)c2cccnc2)cc1,,inactive: 25.6%
O=C1c2ccccc2NC(c2ccc3c(c2)OCCO3)N1c1ccc2c(c1)OCCO2 (stereo not drawn),"inconclusive: 17.8 µM [inhibitor, single point]",
CC(C)CN(CC(C)C)C(=S)NC1CCCCC1,active: 2.82 µM,
O=C(Nc1nc(=O)c2ccccc2s1)c1ccccc1,active: 7.08 µM,
CC1(C)CC(=O)C2=C(C1)OC(N)=C(C#N)C2c1cn(-c2ccccc2)nc1-c1ccccc1 (stereo not drawn),"inconclusive: 15.8 µM [activator, single point]",
COc1ccc(Cl)cc1NC(=O)CN1c2ccccc2CC1C (stereo not drawn),"inconclusive: 31.6 µM [inhibitor, single point]",
Fc1cccc(/C=N/Nc2ncnc3nc[nH]c23)c1,"inconclusive: 12.6 µM [activator, partial curve]",
Cc1cc(C)c(NC(=O)CNC(=O)COC(=O)C2CCN(c3ccc(C(F)(F)F)cn3)CC2)c(C)c1,"inconclusive: 35.5 µM [activator, single point]",
CC(=O)c1c(C)nc(Nc2nc(C)c3cc(C)ccc3n2)nc1C,active: 3.98 µM,
O=C(O)CCn1c(-c2ccccn2)nc2ccccc21,,inactive: -28.2%
COc1cccc(C(=O)Cn2c(=N)n(C)c3ccccc32)c1,active: 10 µM,
O=C(CN1C(=O)CCC1=O)Nc1nc(-c2ccc3ccccc3c2)cs1,"inconclusive: 35.5 µM [inhibitor, single point]",
Cc1ccccc1-n1c(SCC(=O)c2cc(C)n(C)c2C)nnc1-c1ccncc1,,inactive: 20.4%
O=C(NCc1ccc(Cl)cc1)C(=O)NCC(c1cccnc1)N1CCN(c2ccc(F)cc2)CC1 (stereo not drawn),"inconclusive: 11.2 µM [activator, partial curve]",
Cc1ccccc1-n1cnc2cc(NCc3cccs3)ccc21,"inconclusive: 11.2 µM [inhibitor, partial curve, poor fit]",
O=C(Nc1cccc(Br)c1)c1ccn[nH]1,"inconclusive: 5.62 µM [activator, partial curve]",
CN1CCN(NC(=S)NC(C)(C)CC(C)(C)C)CC1,active: 6.31 µM,
O=[N+]([O-])c1ccc(O)c(/C=N/Nc2ccccn2)c1,active: 10 µM,
C=CCOc1ccccc1CN(C(=O)CCl)c1ccc2c(c1)OCO2,"inconclusive: 20 µM [inhibitor, single point]",
CCN1CCN(Cc2ccc(NC(=O)c3cc(NC(=O)c4cc(C)on4)cc(OC)c3)cc2C(F)(F)F)CC1,"inconclusive: 35.5 µM [inhibitor, single point]",
CCC(C)c1ccc(NC(=O)COc2c(F)c(F)c(C(F)(F)F)c(F)c2F)cc1 (stereo not drawn),"inconclusive: 10 µM [activator, partial curve]",
